Reference: PubChem BioAssay
Values joined by “and” are separate entries in the source; they are usually repeats but may differ in a detail not shown here. Equal entries are not always repeated. The shares of active, inactive and inconclusive entries below differ from those in the screen. A potency beside an inconclusive call is a rough fit, not a confirmed value. Active and inactive are the calls of the source. Unless noted, the limit is not given here; nearly all actives have AC50 up to about 23 µM.

Assay: growth inhibition of DIPG glioma cells, dose response, cell-based, SU-DIPG-XVII, MIPE5.0, CellTiter-Glo, qHTS (AID 1347060; cut-off not given, nearly all actives have AC50 up to about 26 µM;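 as to AC50: cells exposed to compound for 48 hours before viability readout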)
Settings: SU-DIPG-XVII viability, CellTiter-Glo ATP luminescence

Row | Structure (SMILES) | AC50 | outcome
1 | Cn1cc(-c2cc(Oc3cc(F)c(NC(=O)C4(C(=O)Nc5ccccc5)CC4)cc3F)ccn2)cn1 | inconclusive: 33.2 µM [cytotoxic] | –
2 | Cc1cnc(-c2ccccc2C(C)C)nc1NCc1ccc(-n2ccnn2)cc1 | – | inactive
3 | CCCC[C@@H](C=O)NC(=O)[C@H](CC(C)C)NC(=O)OCc1ccccc1 | inconclusive: 5.25 µM [cytotoxic] | –
4 | CC1=C2C[C@H]3[C@@H](CC[C@@H]4C[C@H](NS(C)(=O)=O)CC[C@@]43C)[C@@H]2CC[C@@]2(C1)O[C@@H]1C[C@H](C)CN[C@H]1[C@H]2C | inconclusive: 29.5 µM [cytotoxic] | –
5 | COc1cc(-c2cn(C)c(=O)c3cnccc23)c(OC)cc1CN(C)C | – | inactive
6 | Cn1cc(C2=C(c3cn(C)c4cc([N+](=O)[O-])ccc34)C(=O)NC2=O)c2ccccc21 | active: 0.332 µM | –
7 | O=C(NCc1ccc(S(=O)(=O)c2cccc(C(F)(F)F)c2)cc1)c1cnc2[nH]ncc2c1 | active: 0.0263 µM | –

Assay: growth inhibition of DIPG glioma cells, dose response, cell-based, SU-DIPG-XIII, MIPE5.0, CellTiter-Glo, qHTS (AID 1347064);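 as to AC50: cells exposed to compound for 48 hours before the viability read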
Settings: SU-DIPG-XIII viability, CellTiter-Glo ATP luminescence

Row | Structure (SMILES) | AC50 | outcome
8 | CCCS(=O)(=O)c1nc(NC2CC2)cc(-c2ccc3c(ccn3C3CC(C)(C)NC(C)(C)C3)c2)n1 | inconclusive: 3.93 µM [cytotoxic] | –
9 | CONC(=O)Nc1ccc(-c2sc3c(c2CN(C)C)c(=O)n(-c2ccc(OC)nn2)c(=O)n3Cc2c(F)cccc2F)cc1 | – | inactive
10 | CC(C)N(CCC(=O)c1ccc2ccccc2c1)Cc1ccccc1 | active: 7.42 µM | –
11 | CCN(CC)CCNC(=O)c1c(C)[nH]c(/C=C2/C(=O)Nc3ccc(-c4csc(-c5ccccc5)n4)cc32)c1C | active: 2.95 µM | –
12 | CN1CC[C@@H](c2c(O)cc(O)c3c(=O)cc(-c4ccc(C(F)(F)F)cc4Cl)oc23)[C@@H]1CO | inconclusive: 33.2 µM [cytotoxic] | –
13 | Oc1ccc(Nc2nc(-c3ccc(Cl)cc3)cs2)cc1 | inconclusive: 7.42 µM [cytotoxic] | –
14 | C[C@@H](C(=O)Nc1ccc(Cl)cc1)C1CCC(c2ccnc3ccc(F)cc23)CC1 (stereo partly specified) | – | inactive
15 | Nc1ccc(F)cc1NC(=O)c1ccc(CNC(=O)/C=C/c2cccnc2)cc1 | inconclusive: 16.6 µM [cytotoxic] | –
16 | COC1(c2sc3c(N4CCOCC4)nc(-c4cnc(N)nc4)nc3c2C)COC1 | active: 0.661 µM | –
17 | Cc1c(NC(=O)OCC2COCCN2)cn2ncnc(Nc3ccc4c(cnn4Cc4cccc(F)c4)c3)c12 (stereo unspecified) | active: 23.5 µM | –
18 | COc1cc2ncnc(Oc3cccc(NC(=O)Nc4cc(C(C)(C)C(F)(F)F)on4)c3)c2cc1OC | active: 16.6 µM | –
19 | C[C@@H]1CC[C@@]2(OC1)OC1CC3C4CC=C5CC(O)CCC5(C)C4CCC3(C)C1[C@@H]2C (stereo partly specified) | inconclusive: 26.3 µM [cytotoxic] | –
20 | COc1cccc2c1c(O)c(C(=O)N(C)c1ccc(C(F)(F)F)cc1)c(=O)n2C | – | inactive
21 | CC(=O)NCCCS(=O)(=O)O | – | inactive
22 | O=C(Nc1ccc2[nH]nc(-c3ccncc3)c2c1)[C@@H]1CCN(CC(=O)N2CCN(c3ccc(-c4ncccn4)cc3)CC2)C1 | active: 1.48 µM | –
23 | O=C(/C=C\n1cnc(-c2cc(C(F)(F)F)cc(C(F)(F)F)c2)n1)NNc1ccccn1 | active: 0.295 µM | –
24 | Cc1ccc(-n2c(C)cc(-c3nnc4n3CCCCC4)c2C)cc1 | active: 14.8 µM | –

Row | Structure (SMILES) | AC50 | outcome
25 | CCCCOC(=O)NS(=O)(=O)c1sc(CC(C)C)cc1-c1ccc(Cn2ccnc2)cc1 | – | inactive
26 | c1ccc(-c2ccc(CNc3nc(-c4ccccn4)nnc3-c3ccccc3)cc2)cc1 | inconclusive: 3.72 µM [cytotoxic] | –
27 | O=C1Nc2nc(-c3c(O)cccc3OCC3CC3)cc([C@@H]3CCCNC3)c2CO1 | inconclusive: 0.00118 µM | –
28 | CCCc1cc(C)[nH]c(=O)c1CNC(=O)c1cc(-c2ccc(N3CCN(C(C)C)CC3)nc2)cc2c1cnn2C(C)C | inconclusive: 16.6 µM [cytotoxic] | –
29 | COc1cccc(-c2c(C)n(Cc3c(F)cccc3C(F)(F)F)c(=O)n(C[C@H](NCCCC(=O)O)c3ccccc3)c2=O)c1F | inconclusive: 1.05 nM and inconclusive: 1.18 nM | –
30 | Cc1cccc(CC(=O)N2CCc3c2ccc(-c2cn(C)c4ncnc(N)c24)c3F)n1 | inconclusive: 5.9 µM [cytotoxic] | –
31 | O=C(NO)c1cnc(NC2(c3ccccc3)CC2)nc1 | active: 3.32 µM | –
32 | Cc1nnn(C)c1-c1cnc2c3ccc(C(C)(C)O)cc3n([C@H](c3ccccc3)C3CCOCC3)c2c1 | inconclusive: 0.059 µM [cytotoxic] | –
33 | O=C(NCCCNC(=O)c1ccc[nH]c1=O)c1cc(-c2ccccc2)on1 | inconclusive: 0.0332 µM | –
34 | CCCCOc1nc(N)c2c(n1)N(Cc1cccc(CN3CCCC3)c1)CC(=O)N2 | – | inactive
35 | Cn1cc(-c2cc(Oc3cc(F)c(NC(=O)C4(C(=O)Nc5ccccc5)CC4)cc3F)ccn2)cn1 | inconclusive: 20.9 µM [cytotoxic] | –
36 | Cc1cnc(-c2ccccc2C(C)C)nc1NCc1ccc(-n2ccnn2)cc1 | inconclusive: 2.63 µM | –
37 | CCCC[C@@H](C=O)NC(=O)[C@H](CC(C)C)NC(=O)OCc1ccccc1 | inconclusive: 33.2 µM [cytotoxic] | –
38 | CC1=C2C[C@H]3[C@@H](CC[C@@H]4C[C@H](NS(C)(=O)=O)CC[C@@]43C)[C@@H]2CC[C@@]2(C1)O[C@@H]1C[C@H](C)CN[C@H]1[C@H]2C | inconclusive: 37.2 µM [cytotoxic] | –
39 | COc1cc(-c2cn(C)c(=O)c3cnccc23)c(OC)cc1CN(C)C | inconclusive: 8.33 µM | –
40 | Cn1cc(C2=C(c3cn(C)c4cc([N+](=O)[O-])ccc34)C(=O)NC2=O)c2ccccc21 | inconclusive: 5.9 µM [cytotoxic] | –
41 | O=C(NCc1ccc(S(=O)(=O)c2cccc(C(F)(F)F)c2)cc1)c1cnc2[nH]ncc2c1 | active: 0.0118 µM | –
